# Measured values published in PMC13284713.
# By UniProt entry, the sequences of proteins in these tests, tags left out.
# UniProt Q13547: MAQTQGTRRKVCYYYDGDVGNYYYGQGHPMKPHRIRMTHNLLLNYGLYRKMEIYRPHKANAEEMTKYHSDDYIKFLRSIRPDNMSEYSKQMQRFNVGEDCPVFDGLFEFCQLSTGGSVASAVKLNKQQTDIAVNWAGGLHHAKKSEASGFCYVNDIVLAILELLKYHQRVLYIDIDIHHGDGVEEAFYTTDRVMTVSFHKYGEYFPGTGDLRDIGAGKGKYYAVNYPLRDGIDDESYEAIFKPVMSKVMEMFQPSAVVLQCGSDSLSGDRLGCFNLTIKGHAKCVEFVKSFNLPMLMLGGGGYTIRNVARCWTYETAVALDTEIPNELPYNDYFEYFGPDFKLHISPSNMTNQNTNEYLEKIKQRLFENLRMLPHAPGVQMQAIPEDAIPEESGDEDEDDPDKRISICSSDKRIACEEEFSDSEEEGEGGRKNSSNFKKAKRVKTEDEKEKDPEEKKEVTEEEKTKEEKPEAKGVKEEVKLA
# UniProt Q92769: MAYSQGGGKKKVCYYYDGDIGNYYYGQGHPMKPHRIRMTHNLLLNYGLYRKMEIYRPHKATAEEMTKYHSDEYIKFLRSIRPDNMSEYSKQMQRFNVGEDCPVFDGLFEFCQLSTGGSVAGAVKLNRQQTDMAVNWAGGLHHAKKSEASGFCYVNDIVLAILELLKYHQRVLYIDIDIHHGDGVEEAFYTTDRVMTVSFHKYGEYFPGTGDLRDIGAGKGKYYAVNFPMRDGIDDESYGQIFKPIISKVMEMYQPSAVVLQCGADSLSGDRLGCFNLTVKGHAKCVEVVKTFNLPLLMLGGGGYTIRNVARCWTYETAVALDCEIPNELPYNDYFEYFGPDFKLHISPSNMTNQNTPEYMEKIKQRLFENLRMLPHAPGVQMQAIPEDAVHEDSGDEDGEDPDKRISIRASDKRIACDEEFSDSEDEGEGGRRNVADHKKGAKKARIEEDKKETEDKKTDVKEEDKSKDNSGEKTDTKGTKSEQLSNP
# These are yes or no findings as the source states them, for the method shown. In cells and extracts the contact can be indirect. Some results given as binding are weak or reduced against the parent protein; the word gives no strength. Tags and fused reporters may be left off the sequences shown.
# Biological target: T1, V5-tagged full-length murine ARID5B (murine) (UniProt Q8BM75)
# T1 sequence: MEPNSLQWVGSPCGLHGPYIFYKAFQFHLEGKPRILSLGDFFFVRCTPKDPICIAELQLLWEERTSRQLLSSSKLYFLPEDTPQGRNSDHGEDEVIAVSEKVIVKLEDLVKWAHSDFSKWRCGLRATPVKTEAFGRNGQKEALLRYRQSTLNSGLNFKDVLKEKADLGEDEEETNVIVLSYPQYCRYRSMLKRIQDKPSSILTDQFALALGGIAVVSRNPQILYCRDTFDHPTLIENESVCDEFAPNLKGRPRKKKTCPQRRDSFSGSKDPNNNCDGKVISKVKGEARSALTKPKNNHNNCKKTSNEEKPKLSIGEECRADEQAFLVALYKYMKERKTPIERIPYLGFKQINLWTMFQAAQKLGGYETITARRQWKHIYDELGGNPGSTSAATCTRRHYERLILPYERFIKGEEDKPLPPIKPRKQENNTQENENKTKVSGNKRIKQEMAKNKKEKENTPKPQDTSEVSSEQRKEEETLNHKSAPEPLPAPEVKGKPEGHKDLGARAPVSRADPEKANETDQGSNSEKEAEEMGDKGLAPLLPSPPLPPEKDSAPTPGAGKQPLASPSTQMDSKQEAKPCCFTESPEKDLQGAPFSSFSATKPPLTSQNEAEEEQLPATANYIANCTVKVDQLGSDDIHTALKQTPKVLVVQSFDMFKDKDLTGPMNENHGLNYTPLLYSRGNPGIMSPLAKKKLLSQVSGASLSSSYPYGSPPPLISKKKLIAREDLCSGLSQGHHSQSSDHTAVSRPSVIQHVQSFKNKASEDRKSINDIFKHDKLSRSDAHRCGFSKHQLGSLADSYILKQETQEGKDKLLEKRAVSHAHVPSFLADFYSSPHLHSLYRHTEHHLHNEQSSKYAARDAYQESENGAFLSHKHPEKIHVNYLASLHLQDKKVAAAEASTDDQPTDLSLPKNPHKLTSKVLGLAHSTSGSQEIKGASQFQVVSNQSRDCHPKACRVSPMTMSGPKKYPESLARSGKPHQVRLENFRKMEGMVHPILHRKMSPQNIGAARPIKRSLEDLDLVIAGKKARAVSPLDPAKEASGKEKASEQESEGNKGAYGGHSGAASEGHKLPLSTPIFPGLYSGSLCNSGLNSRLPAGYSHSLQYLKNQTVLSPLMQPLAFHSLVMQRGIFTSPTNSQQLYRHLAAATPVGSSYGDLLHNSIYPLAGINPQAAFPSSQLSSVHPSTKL
# Experiment: co-IP; V5 Sepharose beads, 1 mg HAP1 lysate in IP Lysis Buffer (50 mM Tris-HCl pH 7.5, 150 mM NaCl, 2 mM EDTA, 0.5% Triton X-100, Benzonase), overnight at 4°C; immunoblotting of HDAC1 and HDAC2
substance,measurement,value
HDAC1 (from UniProt Q13547 1-482) (enzyme),binding,binds
HDAC2 (from UniProt Q92769 1-488) (enzyme),binding,binds
